Source: the supplement of paper PMC10849652
This is one part of the list.

Protein sequences, listed by entry. Tags and fused reporters are not part of them. Lines headed by an entry give the natural chain unless they say otherwise; changes in a name come on top.
UniProt Q969V3: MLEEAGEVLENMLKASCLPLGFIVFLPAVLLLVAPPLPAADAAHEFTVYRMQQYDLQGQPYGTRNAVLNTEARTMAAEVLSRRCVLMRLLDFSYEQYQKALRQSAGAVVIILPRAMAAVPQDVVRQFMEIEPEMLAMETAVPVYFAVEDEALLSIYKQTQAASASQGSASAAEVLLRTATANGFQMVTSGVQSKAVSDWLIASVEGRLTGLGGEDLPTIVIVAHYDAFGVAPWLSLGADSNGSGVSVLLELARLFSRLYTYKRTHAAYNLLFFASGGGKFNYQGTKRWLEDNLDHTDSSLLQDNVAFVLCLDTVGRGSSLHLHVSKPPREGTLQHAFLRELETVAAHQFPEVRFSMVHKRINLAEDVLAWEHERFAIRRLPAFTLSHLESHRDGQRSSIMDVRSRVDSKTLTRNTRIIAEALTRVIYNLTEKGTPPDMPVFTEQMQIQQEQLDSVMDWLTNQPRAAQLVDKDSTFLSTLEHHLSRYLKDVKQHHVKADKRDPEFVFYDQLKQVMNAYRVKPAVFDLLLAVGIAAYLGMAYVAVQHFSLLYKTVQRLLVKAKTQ
UniProt Q8NCW5: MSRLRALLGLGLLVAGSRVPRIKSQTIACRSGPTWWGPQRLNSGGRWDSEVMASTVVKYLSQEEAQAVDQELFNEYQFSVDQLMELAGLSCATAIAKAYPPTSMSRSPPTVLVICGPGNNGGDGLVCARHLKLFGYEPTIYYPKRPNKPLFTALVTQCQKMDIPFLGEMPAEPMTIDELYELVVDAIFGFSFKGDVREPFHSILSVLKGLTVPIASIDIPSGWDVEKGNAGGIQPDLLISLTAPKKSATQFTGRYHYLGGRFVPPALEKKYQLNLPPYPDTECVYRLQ
UniProt Q86Y39, whole entry, looked up: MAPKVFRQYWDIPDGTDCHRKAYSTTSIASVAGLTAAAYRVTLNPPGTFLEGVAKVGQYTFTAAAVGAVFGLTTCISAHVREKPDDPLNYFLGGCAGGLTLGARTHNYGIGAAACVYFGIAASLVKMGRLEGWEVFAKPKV
UniProt Q9GZM8: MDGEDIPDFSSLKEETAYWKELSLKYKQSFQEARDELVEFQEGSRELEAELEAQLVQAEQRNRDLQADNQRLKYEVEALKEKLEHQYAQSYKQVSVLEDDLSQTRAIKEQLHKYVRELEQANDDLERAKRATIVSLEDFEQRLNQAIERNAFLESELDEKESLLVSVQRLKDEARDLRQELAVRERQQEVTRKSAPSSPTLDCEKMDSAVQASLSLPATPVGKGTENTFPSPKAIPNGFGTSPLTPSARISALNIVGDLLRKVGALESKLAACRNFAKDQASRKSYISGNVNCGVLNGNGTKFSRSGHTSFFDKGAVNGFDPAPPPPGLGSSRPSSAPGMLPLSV
UniProt O00483, whole entry, looked up: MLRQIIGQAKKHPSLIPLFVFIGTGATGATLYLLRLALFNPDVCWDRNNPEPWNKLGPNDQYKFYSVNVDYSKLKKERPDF
UniProt O95139, whole entry, looked up: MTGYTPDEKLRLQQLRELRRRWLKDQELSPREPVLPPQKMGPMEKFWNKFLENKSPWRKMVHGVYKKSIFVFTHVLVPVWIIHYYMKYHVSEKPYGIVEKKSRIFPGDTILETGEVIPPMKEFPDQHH
UniProt Q5TEU4: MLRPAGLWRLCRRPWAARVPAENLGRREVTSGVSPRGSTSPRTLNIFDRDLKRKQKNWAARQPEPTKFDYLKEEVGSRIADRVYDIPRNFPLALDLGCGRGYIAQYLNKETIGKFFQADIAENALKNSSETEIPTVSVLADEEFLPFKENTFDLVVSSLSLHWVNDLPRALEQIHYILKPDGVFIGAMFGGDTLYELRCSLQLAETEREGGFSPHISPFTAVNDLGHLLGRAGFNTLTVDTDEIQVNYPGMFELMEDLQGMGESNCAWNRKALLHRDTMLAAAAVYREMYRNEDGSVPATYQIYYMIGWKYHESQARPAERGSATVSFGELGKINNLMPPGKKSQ
UniProt P12036: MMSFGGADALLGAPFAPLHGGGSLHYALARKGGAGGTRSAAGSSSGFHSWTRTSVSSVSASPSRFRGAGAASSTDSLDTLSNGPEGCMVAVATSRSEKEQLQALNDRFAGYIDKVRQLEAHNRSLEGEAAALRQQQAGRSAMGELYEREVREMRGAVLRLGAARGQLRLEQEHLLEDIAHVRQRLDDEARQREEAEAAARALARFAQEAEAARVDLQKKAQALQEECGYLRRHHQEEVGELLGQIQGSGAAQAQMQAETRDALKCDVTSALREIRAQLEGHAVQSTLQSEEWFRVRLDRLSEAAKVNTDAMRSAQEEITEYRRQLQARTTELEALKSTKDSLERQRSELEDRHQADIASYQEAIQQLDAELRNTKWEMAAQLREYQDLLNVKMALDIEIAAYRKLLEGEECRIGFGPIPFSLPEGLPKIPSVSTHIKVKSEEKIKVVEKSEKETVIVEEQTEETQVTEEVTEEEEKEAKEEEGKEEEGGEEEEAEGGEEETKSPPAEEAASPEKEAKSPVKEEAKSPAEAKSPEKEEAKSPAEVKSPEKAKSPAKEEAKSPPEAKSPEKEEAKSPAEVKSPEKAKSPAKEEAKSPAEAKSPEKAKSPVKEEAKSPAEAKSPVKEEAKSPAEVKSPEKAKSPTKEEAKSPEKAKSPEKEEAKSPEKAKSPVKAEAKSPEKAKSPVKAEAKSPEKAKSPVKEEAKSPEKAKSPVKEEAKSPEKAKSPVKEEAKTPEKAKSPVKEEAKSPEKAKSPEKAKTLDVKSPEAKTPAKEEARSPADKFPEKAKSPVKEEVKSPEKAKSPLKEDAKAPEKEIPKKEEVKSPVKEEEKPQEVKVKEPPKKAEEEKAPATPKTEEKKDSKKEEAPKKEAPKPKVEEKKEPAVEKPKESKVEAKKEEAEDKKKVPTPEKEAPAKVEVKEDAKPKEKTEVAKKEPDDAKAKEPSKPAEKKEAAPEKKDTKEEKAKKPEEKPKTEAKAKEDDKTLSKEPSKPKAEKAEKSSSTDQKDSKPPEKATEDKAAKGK
UniProt Q86XI2: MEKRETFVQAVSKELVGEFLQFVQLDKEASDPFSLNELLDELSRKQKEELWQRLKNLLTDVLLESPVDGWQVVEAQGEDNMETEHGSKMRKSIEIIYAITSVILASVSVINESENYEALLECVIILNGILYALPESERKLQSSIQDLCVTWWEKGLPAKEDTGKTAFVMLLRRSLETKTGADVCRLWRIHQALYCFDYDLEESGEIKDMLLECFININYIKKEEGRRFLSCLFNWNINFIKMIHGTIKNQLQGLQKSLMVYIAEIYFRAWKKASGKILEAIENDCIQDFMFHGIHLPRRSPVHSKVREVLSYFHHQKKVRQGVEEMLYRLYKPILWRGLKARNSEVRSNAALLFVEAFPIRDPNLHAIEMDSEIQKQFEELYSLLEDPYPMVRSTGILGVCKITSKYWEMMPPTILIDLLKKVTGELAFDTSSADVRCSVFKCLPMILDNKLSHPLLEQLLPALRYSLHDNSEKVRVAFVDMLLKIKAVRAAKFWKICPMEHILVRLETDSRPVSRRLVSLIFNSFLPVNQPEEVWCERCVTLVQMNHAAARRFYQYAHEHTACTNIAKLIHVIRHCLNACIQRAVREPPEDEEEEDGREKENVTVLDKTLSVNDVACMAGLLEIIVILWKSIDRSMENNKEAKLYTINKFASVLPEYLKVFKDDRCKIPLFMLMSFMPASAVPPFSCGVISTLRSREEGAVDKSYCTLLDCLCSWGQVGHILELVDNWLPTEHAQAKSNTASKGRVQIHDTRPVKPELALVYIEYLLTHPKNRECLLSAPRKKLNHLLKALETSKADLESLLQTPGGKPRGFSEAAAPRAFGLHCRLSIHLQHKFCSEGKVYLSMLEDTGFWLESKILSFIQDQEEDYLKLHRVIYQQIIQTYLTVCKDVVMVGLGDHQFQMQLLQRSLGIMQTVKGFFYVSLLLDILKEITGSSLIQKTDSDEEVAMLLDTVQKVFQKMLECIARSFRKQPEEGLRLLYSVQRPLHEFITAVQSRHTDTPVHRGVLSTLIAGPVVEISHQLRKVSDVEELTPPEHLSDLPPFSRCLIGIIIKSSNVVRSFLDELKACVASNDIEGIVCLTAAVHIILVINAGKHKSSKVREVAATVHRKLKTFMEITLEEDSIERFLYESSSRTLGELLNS
UniProt Q9UN36: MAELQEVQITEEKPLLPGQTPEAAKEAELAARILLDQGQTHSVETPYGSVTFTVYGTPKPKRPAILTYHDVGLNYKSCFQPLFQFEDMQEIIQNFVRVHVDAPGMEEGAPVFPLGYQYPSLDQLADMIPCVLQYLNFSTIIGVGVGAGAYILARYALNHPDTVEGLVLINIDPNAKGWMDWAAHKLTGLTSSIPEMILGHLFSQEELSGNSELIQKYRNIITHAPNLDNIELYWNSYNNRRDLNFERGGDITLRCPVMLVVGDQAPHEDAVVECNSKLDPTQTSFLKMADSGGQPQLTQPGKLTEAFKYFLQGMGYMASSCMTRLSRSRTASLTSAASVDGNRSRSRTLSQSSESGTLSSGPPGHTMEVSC
UniProt Q6IA69: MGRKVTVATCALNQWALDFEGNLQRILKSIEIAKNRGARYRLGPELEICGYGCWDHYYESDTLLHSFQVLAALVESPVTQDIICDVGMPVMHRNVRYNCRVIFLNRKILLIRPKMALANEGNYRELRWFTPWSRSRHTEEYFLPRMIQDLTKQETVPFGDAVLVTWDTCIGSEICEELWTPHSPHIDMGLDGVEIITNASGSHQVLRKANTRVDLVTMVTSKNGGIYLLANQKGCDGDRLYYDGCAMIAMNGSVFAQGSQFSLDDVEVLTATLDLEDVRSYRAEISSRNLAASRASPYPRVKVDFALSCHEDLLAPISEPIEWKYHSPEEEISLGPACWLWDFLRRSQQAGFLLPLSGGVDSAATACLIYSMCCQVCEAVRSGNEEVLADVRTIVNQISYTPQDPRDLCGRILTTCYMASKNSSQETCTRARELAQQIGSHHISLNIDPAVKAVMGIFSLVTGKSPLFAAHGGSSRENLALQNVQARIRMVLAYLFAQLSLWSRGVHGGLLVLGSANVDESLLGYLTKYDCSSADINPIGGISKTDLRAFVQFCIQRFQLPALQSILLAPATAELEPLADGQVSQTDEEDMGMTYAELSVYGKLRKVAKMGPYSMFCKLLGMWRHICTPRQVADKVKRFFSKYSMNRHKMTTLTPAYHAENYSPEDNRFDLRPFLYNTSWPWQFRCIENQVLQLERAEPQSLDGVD
UniProt P55209: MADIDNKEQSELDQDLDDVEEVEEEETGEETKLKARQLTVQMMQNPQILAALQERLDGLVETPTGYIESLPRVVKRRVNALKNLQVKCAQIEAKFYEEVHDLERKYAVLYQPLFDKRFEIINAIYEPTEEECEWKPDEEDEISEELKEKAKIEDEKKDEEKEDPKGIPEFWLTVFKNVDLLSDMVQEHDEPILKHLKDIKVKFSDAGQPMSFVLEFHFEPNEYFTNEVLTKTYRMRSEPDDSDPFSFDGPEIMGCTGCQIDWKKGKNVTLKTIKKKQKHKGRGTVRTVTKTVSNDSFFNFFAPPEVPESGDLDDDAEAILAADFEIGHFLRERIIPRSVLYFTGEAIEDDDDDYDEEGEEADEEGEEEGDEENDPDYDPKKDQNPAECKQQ
UniProt Q8NC96: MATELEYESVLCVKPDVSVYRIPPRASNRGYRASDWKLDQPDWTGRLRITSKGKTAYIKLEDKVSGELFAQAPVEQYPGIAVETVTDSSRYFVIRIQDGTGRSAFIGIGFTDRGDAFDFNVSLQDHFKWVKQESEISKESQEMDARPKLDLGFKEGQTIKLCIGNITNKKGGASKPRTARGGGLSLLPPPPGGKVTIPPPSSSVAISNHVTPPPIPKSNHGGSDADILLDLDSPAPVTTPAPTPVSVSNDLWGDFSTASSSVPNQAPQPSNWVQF
UniProt O43678, whole entry, looked up: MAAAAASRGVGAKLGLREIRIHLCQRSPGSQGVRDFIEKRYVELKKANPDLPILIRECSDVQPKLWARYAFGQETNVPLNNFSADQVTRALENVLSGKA
UniProt O95299, whole entry, looked up: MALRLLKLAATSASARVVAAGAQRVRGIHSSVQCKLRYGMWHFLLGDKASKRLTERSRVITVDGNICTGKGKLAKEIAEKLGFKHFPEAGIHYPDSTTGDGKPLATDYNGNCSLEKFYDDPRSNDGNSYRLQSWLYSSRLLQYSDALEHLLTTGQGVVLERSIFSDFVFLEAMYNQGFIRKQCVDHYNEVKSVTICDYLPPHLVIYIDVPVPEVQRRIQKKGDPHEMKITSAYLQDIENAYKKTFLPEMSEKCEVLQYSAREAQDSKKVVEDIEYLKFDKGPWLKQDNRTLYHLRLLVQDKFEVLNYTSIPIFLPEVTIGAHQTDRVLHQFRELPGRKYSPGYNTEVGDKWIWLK
UniProt Q8IW45: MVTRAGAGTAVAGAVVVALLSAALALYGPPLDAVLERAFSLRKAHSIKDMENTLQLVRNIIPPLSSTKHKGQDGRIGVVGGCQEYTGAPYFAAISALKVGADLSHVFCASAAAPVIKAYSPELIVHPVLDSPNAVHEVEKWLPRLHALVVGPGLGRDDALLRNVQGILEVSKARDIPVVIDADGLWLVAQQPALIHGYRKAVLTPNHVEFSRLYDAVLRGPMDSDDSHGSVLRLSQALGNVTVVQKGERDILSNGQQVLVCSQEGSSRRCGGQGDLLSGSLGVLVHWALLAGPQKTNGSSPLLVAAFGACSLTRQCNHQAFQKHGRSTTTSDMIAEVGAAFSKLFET

compound: Cc1nc(Nc2n[nH]c3c2CN(C(=O)N[C@H](CN(C)C)c2ccccc2)C3(C)C)c2sccc2n1; test: log2 fold change, soluble protein after heating vs DMSO (PISA); higher = thermal stabilisation; K562 cells, 10 uM, 30 min; active = over 0.2 and 3.5 SD of the protein, either way, in both replicates (recomputed)
Summary of the method: (§1)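 K562 cells at 2×10^6 cells/mL were treated with 10 μM compound for 30 min. Aliquots were heated for 3 min across 48°C-58°C, pooled, and extracted in PBS with 0.5% NP-40 at 4°C; soluble protein was the supernatant after 21,000xg for 90 min. Soluble protein was quantified by TMTpro 16plex LC-MS/MS with channel sums equalised, and reported as log2 fold change in thermal stability against DMSO controls, with values from duplicates.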

log2 fold change, inactive:
NARF (UniProt Q9UHQ1) -0.044
NCAPH (UniProt Q15003) -0.049
NCAPD2 (UniProt Q15021) -0.071
NCLN (UniProt Q969V3) 0.025
NDUFAF2 (UniProt Q8N183) 0.029
NAXE (UniProt Q8NCW5) 0.007
NDUFA11 (UniProt Q86Y39) 0.026
NAP1L4 isoform 2 (UniProt Q99733) -0.028
NDUFB5 (UniProt O43674) 0.003
NDEL1 isoform 2 (UniProt Q9GZM8) 0.017
NCDN isoform 3 (UniProt Q9UBB6) -0.101

compound: Cc1nc(Nc2ncc(C(=O)Nc3c(C)cccc3Cl)s2)cc(N2CCN(CCO)CC2)n1 [dasatinib]; test: as above
Summary of the method: as §1

log2 fold change, inactive:
NDUFA4 (UniProt O00483) 0.032
MZT2A (UniProt Q6P582) -0.083
NDUFB6 (UniProt O95139) 0.088
NAA30 (UniProt Q147X3) -0.091
NDUFAF5 (UniProt Q5TEU4) -0.03
NEFH (UniProt P12036) 0.302
NCAPG2 isoform 2 (UniProt Q86XI2) -0.11
NDUFS5 (UniProt O43920) 0.004
NAA10 (UniProt P41227) -0.06
NDRG2 (UniProt Q9UN36) -0.057
NADSYN1 (UniProt Q6IA69) 0.03
NCOR2 (UniProt C9J0Q5) -0.026
NAP1L1 (UniProt P55209) 0.05
NECAP1 (UniProt Q8NC96) -0.074
NDUFA2 (UniProt O43678) -0.018
NCOR1 (UniProt O75376) -0.091
NAPRT (UniProt Q6XQN6) 0.04
NA, A0A0B4J2A0 -0.111
N6AMT1 (UniProt Q9Y5N5) 0.013
NDUFA10 (UniProt O95299) -0.183
NEBL isoform 2 (UniProt O76041) 0.019
NDUFA7 (UniProt O95182) -0.145
NAXD (UniProt Q8IW45) 0
NARF (UniProt Q9UHQ1) -0.01
NCAPH (UniProt Q15003) -0.121
NCAPD2 (UniProt Q15021) -0.159
NCLN (UniProt Q969V3) 0.005
NDUFAF2 (UniProt Q8N183) -0.003
NAXE (UniProt Q8NCW5) 0.043
NDUFA11 (UniProt Q86Y39) 0.034
NAP1L4 isoform 2 (UniProt Q99733) 0.012
NDUFB5 (UniProt O43674) 0.044
NDEL1 isoform 2 (UniProt Q9GZM8) -0.004
NCDN isoform 3 (UniProt Q9UBB6) -0.152
